PubChem BioAssay AID2685 (National Center for Advancing Translational Sciences (NCATS), 2010)
The list shows a part of the results. The main result of the screen is listed elsewhere. These columns were measured beside it and carry no call. Most of these compounds were active or inconclusive in the main read-out, so they are no random draw. Words in brackets tell the shape of the fitted curve; partial curves, single points and poor fits give uncertain potencies.

Assay: qHTS Assay for Lipid Storage Modulators in Drosophila S3 Cells;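 on cell number change: cells counted by Cell Tracker Red CMTPX staining in the red channel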
Conditions: BODIPY lipid droplet fluorescence, 18-24 h; for cell number change: measured here: cell count max response, cells fed with added oleic acid
Summary of the method: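 Drosophila S3 cells got compounds at several concentrations plus oleic acid (400 uM solution). Laser-scanning cytometry with 488 nm excitation read lipid droplets at 500-530 nm and cells at 575-640 nm. Percent activity was relative to 20 uM Triacsin C.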

[1] = measured here: cell number channel AC50, cells fed with added oleic acid
[2] = measured here: lipid fluorescence (Fed channel) AC50, cells fed with added oleic acid

Compound	cell number change	AC50 [1]	AC50 [2]
NC(=O)N=Nc1c(O)n(Cc2ccccc2)c2ccc(Br)cc12	-40.2%	13 µM [falling, partial curve, poor fit]	–
O=C(O)c1cccc2c1C(=O)N(C1CCCCC1)C2	14%	–	–
O=C(CCN1CCN(c2ccccc2)CC1)NNC(=S)Nc1ccccc1Cl	17.5%	–	–
C/C(N)=C(/C#N)C(=O)CSc1nc2ccccc2[nH]1	–	0.0231 µM [rising, full curve, poor fit]	–
N#C/C(=C\c1coc2ccc(O)cc2c1=O)C(=O)Nc1nc2ccccc2s1	-46.5%	16.4 µM [falling, single point]	18.4 µM [falling, single point]
CS(=O)(=O)Nc1ccc(C2=NN(C(=O)c3ccco3)C(c3ccccc3)C2)cc1 (configuration not stated)	–	–	0.92 µM [falling, full curve, poor fit]
Cc1cc(C)c(S(=O)(=O)c2ccc(C(C)(C)C)cc2)c(Cl)n1	35.9%	20.6 µM [rising, single point]	6.51 µM [falling, single point]
Cc1ccc(NC(=O)C2CCCN2C(=O)Oc2ccccc2)cc1 (configuration not stated)	4.14%	–	7.31 µM [rising, full curve, poor fit]
CCOc1ccc(S(=O)(=O)N2CCC(C(=O)Nc3cc(S(C)(=O)=O)ccc3Cl)CC2)cc1	0.448%	0.0058 µM [rising, full curve, poor fit]	0.146 µM [rising, full curve, poor fit]
O=C(O)C1C2CCC(O2)C1C(=O)Nc1ccc(F)cc1 (configuration not stated)	52.9%	23.1 µM [rising, partial curve, poor fit]	–
CCCc1nc2ccccc2c(=O)n1/N=C/c1ccc(O)cc1	-30.4%	20.6 µM [falling, single point]	0.00517 µM [rising, full curve, poor fit]
CCn1cc(C(=O)NNC(=O)c2ccc(Cl)cc2)c(=O)c2ccc(C)nc21	1.23%	–	29.1 µM [rising, single point]
O=C(CN1C(=O)c2ccccc2S1(=O)=O)Nc1ccc(S(=O)(=O)N2CCCC2)cc1	0.704%	–	29.1 µM [falling, single point]
CC(C)(C)c1ccccc1OCC(=O)NCCC(=O)O	16.5%	–	29.1 µM [rising, single point]
NC1=NC(=O)/C(=C/c2cccc(-c3ccc(S(N)(=O)=O)cc3)c2)S1	43.4%	14.6 µM [rising, partial curve, poor fit]	–
CCOc1cccc(C(=O)NNC(=O)CCC(=O)O)c1	-4.93%	–	0.651 µM [falling, full curve]
Cn1c(=O)c(C(=O)Nc2ncccc2O)c(O)c2ccccc21	-59.4%	16.4 µM [falling, single point]	20.6 µM [falling, single point]
COc1ccccc1NS(=O)(=O)c1cccc(C(=O)N/N=C(\C)c2ccc3c(c2)OCCO3)c1	7.41%	–	–
O=C(CSc1ccc(Cl)cc1)Nc1nnc(-c2ccco2)o1	8.06%	–	10.3 µM [falling, partial curve]

Compound	cell number change	AC50 [1]	AC50 [2]
N#Cc1ccc(Oc2cccnc2)cc1C#N	–	–	0.731 µM [rising, single point]
CC(=O)N1CCN(C(=O)CSc2cc(C)c(Br)cc2C)CC1	20.5%	–	–
O=C(COc1ccc(Cl)cc1Br)NC(=O)NC1CCCC1	-60.8%	18.4 µM [falling, partial curve]	–
O=S(=O)(c1ccc(Oc2ncnc3scc(-c4ccccc4)c23)cc1)N1CCOCC1	-26.4%	–	2.06 µM [rising, partial curve]
O=C(CCC(=O)N(CC(=O)NC1CCCCC1)c1ccccc1F)Nc1nccs1	154%	29.1 µM [rising, single point]	29.1 µM [rising, single point]
CSc1cccc(NC(=O)C2C3C=CC4(O3)C2C(=O)N(CCCN2CCOCC2)C4C(=O)NC2CCCCC2)c1 (configuration not stated)	18.5%	–	29.1 µM [falling, partial curve, poor fit]
CCCN(CCC)S(=O)(=O)c1ccc(C(=O)N2CC3CCC(CC3)C2)cc1	-52.4%	5.17 µM [falling, full curve]	29.1 µM [falling, single point]
Cc1ccc(-c2nc3ccccc3o2)cc1NC(=S)NC(=O)/C=C/c1ccco1	-28.7%	–	32.6 µM [falling, single point]
CCn1ncc(Cl)c1C(=O)NC(=S)Nc1c(C)cc(C)cc1[N+](=O)[O-]	47.7%	2.31 µM [rising, partial curve]	4.11 µM [rising, partial curve]
O=C(NCc1ccc(F)cc1)c1ccccc1OCc1ccccc1	61.3%	10.3 µM [rising, partial curve]	9.2 µM [rising, partial curve]
Cn1c(=O)c(S(=O)(=O)C(C)(C)C)c(O)c2ccccc21	-59.1%	29.1 µM [falling, single point]	29.1 µM [falling, single point]
CC(C)(C)c1ccc(NC(=O)CNC2CCCc3ccccc32)cc1 (configuration not stated)	-73%	1.46 µM [falling, partial curve]	0.231 µM [falling, full curve, poor fit]
CCOC(=O)c1cc(NC(=O)c2cnccn2)cc(C(=O)OCC)c1	1.76%	–	29.1 µM [rising, single point]
CC(OC(=O)CNC(=O)c1cccs1)C(=O)Nc1ccc(S(N)(=O)=O)cc1 (configuration not stated)	-12.4%	6.51 µM [falling, single point]	8.2 µM [rising, partial curve]
COc1ccccc1C(=O)N(Cc1ccco1)C1CCS(=O)(=O)C1 (configuration not stated)	0.144%	–	29.1 µM [falling, single point]
COc1ccccc1NC(=O)NCCN1CCN(c2cccc(Cl)c2)CC1	25%	6.51 µM [rising, single point]	10.3 µM [falling, partial curve]
COC(=O)c1ccc(N2C(=O)C3CC(C)=C(C)CC3C2=O)cc1 (configuration not stated)	-8.31%	3.26 µM [rising, single point]	0.461 µM [rising, partial curve, poor fit]
Brc1ccc(-c2cn3nc4c(nc3n2)CCCC4)cc1	38.1%	8.2 µM [rising, partial curve, poor fit]	–
COC(=O)C(Cc1ccccc1)NC(=O)CNC(=O)c1ccc(Br)o1 (configuration not stated)	4.13%	–	–

Some of the entries above in a different format.
Compound,cell number change,AC50 [1],AC50 [2]
Cn1c(=O)c(S(=O)(=O)C(C)(C)C)c(O)c2ccccc21,-59.1%,"29.1 µM [falling, single point]","29.1 µM [falling, single point]"
CC(C)(C)c1ccc(NC(=O)CNC2CCCc3ccccc32)cc1 (configuration not stated),-73%,"1.46 µM [falling, partial curve]","0.231 µM [falling, full curve, poor fit]"
CCOC(=O)c1cc(NC(=O)c2cnccn2)cc(C(=O)OCC)c1,1.76%,–,"29.1 µM [rising, single point]"

Further entries.

Compound	cell number change	AC50 [1]	AC50 [2]
O=C(O)/C=C/C(=O)Nc1ccc(-n2nccc2C(F)(F)F)cc1	28.6%	–	–
COc1ccc(-c2cn(-c3ccc(C)cc3C)c(=S)[nH]2)cc1OC	-68.2%	23.1 µM [falling, single point]	23.1 µM [falling, partial curve, poor fit]
S=C(Nc1cccc(Cl)c1Cl)N1CCCC1	0.578%	–	29.1 µM [falling, single point]
CCCCCc1c2c(cc(O)c1C(=O)O)OC(=O)c1c(cc(OC)cc1C(=O)CCCC)O2	-26.2%	–	29.1 µM [falling, single point]
Cc1c[nH]c(=O)c([N+](=O)[O-])c1	20%	–	–
Cc1ccc(OCC(=O)N(Cc2ccc(C)o2)C2CCS(=O)(=O)C2)cc1 (configuration not stated)	11.9%	–	–
Cc1c(C(=O)NCc2c(F)cc(F)cc2F)oc2ccc(S(=O)(=O)N3CCOCC3)cc12	–	–	0.013 µM [falling, full curve, poor fit]
COc1ccc(COC(=O)C2=C(C)NC(=O)NC2c2ccc(O)c(OC)c2)cc1 (configuration not stated)	5.44%	–	16.4 µM [rising, single point]
Cc1sc2ncnc(OCC(=O)NC(C)C(C)C)c2c1C (configuration not stated)	6.95%	–	0.651 µM [rising, partial curve, poor fit]
Cc1ccc(CNS(=O)(=O)c2cc3c(cc2C)NC(=O)CO3)cc1	–	–	4.61 µM [rising, partial curve]
O=C1CCCC/C1=C\Nc1ccc(C(=O)O)c(O)c1	14.1%	–	6.51 µM [falling, single point]
O=C(NCCN1CCOCC1)c1ccc(Cl)c(S(=O)(=O)N2CCCCC2)c1	0.495%	0.259 µM [rising, partial curve, poor fit]	14.6 µM [rising, partial curve]
CC1CCN(CC(=O)NCc2ccccc2)CC1	-182%	29.1 µM [falling, single point]	–
CC(C)(C)n1nc2c(c1NC(=O)c1cccc(C(F)(F)F)c1)CS(=O)C2 (configuration not stated)	-0.952%	–	0.00461 µM [falling, full curve, poor fit]
Cc1ccccc1NC(=O)COC(=O)CCc1c[nH]c2ccccc12	-6.16%	–	0.291 µM [rising, full curve, poor fit]
Cc1cccc(OCc2nnc(SCC(=O)Nc3cccc(C(=O)N4CCOCC4)c3)n2C)c1C	-25%	–	18.4 µM [falling, partial curve]
CC(Oc1ccc(Br)cc1Cl)C(=O)Nc1ccncc1 (configuration not stated)	-39.3%	11.6 µM [falling, partial curve]	8.2 µM [falling, partial curve]
CCOc1ccc(C(=O)Nc2cccc(C(=O)O)c2)cc1Cl	-26.6%	0.00461 µM [falling, full curve, poor fit]	8.2 µM [falling, partial curve]
